Assay results published in patent US20130317092A1 (priority 2007, published 2013).
At least one structure is not confirmed: it was looked up by name or label, or the drawing left a doubt.

Experiments:
[1] = test system: activated caspase-3; experiment: Activated caspase-3 immunostaining in Meg-01 cells; assay type: cell-based, human; details: Thapsi plus inhibitor
[2] = test system: AChmiRNA (miRNA-181a); experiment: AChmiRNA (miRNA-181a) level by real-time RT-PCR in Meg-01 cells; assay type: cell-based, human; details: Meg-01 cells co-treated with Thapsi and inhibitor
[3] = test system: AChmiRNA; design: species or system mice; details: mouse

SMILES	caspase-3 activation induced by Thapsi, with co-treatment [1]	AChmiRNA levels on co-treatment with Thapsi [2]	AChmiRNA levels in vivo [3]
CNC(=O)Oc1ccc2c(c1)[C@]1(C)CCN(C)[C@@H]1N2C [Physostigmine]	inhibited the activation of caspase-3 induced by Thapsi	restored the control levels of AChmiRNA	–
CCOP(=O)(OCC)Oc1ccc([N+](=O)[O-])cc1 [paraoxon, diethyl-p-nitrophenyl phosphate]	–	–	decreases of AChmiRNA levels
